Percent effect of library compounds

Measurements from “University of Dundee, Small-Polar-MMV Screening Library” (2021), ChEMBL document CHEMBL3988442.

Each number is a percent effect as filed. How 0% and 100% were set is not recorded. Most values in the screen are low, and negative values occur. The compounds are a random part of those screened.

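Phenotypic screen: M. tuberculosis growth, glucose 7H9 medium, 3 days; the read-out is not stated. Compounds at 500 µM. Direction is inferred from retests: higher values go with more growth inhibition. Of about 18,000 compounds tested this way, about 1,400 (7.9%) reached 50% or more in at least one test.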

* CC(C)C(CC(=O)NCC(N)=O)c1ccccc1 (stereo not shown) | 14.91%
* CCOCCN1CCN(CC)[C@@H]2CS(=O)(=O)C[C@@H]21 | 7.679%
* CCNC(=O)NCCOc1ccc(S(C)(=O)=O)cc1 | 13.37%
* Cc1ccc(C)c(S(=O)(=O)NC2CCS(=O)(=O)C2)c1 (stereo not shown) | 24.82%
* CN(CC(=O)N(C)C)Cc1nc2ccccc2o1 | 35.56%
* CCc1nnsc1C(=O)NCc1cccnc1N(C)C | -0.1722%
* CN(C)S(=O)(=O)NC(CCO)c1cccs1 (stereo not shown) | 29.4%
* CN(CCCS(C)(=O)=O)C(=O)c1cccc(F)c1Cl | 16.34%
* CN1CCC(C(=O)NCCc2cccc(Cl)c2)CC1=O (stereo not shown) | 23.44%
* COCC(=O)N[C@H](C(=O)NCc1ccoc1C)C(C)C | 12.04%
* CN(CCC#N)C(=O)COC(=O)c1ccccc1Br | 51.27%
* CC(NC(=O)C(C)(C)C)c1ccncc1 (stereo not shown) | 11.35%
* NC(=O)CCN1CCCC(CO)(CC2CC2)C1 (stereo not shown) | -4.669%
* CCC(C(=O)Nc1ncccc1O)N(C)C (stereo not shown) | -5.734%
* CN(C)CC(=O)Nc1ccc(S(N)(=O)=O)cc1 | 6.195%
* Nc1[nH]nc(C(=O)N2CCCC(c3nnc[nH]3)C2)c1Cl (stereo not shown) | 4.195%
* Cc1cccc(NC(=O)C(C)N)c1 (stereo not shown) | 18.49%
* COc1ccc(N2CCCNCC2)cc1 | 76.86%
* O=c1ccc(F)cn1Cc1ncn(-c2ccccc2)n1 | -4.035%
* CC(NCC1CC1)c1nnc2ccccn12 (stereo not shown) | 9.262%
* O=C(CN1CCc2sccc2C1)N1CCNC1=O | 6.999%
* O=C(CN1CCNC(=O)C1)NCCOc1ccccc1 | 23.17%
* Cc1cc(C)cc(C(=O)N2CCC3(CC2)OCCO3)c1 | 44.51%
* CNS(=O)(=O)CCNC(=O)C(C)c1ccccc1 (stereo not shown) | 9.863%
* Cn1cc(NC(=O)C(C)(C)C)cc(Br)c1=O | -3.655%
* CCC(=O)c1ccc(C(=O)OC)cc1 | 5.202%
* CN(Cc1ncc[nH]1)c1cc(C2CC(N)C2)nc(N)n1 (stereo not shown) | -7.386%
* CCS(=O)(=O)c1ccc(C(C)N)cc1 (stereo not shown) | 9.874%
* O=C(Nc1c[nH]nc1C1CCCNC1)C1CCCC1 (stereo not shown) | 5.391%
* CC(CCOc1ccccc1)C(=O)NN1CCOCC1 (stereo not shown) | -6.607%

Some entries from above, unchanged:

Compound,Percent Effect
CN(CCCS(C)(=O)=O)C(=O)c1cccc(F)c1Cl,16.34%
CCS(=O)(=O)c1ccc(C(C)N)cc1 (stereo not shown),9.874%